Source: PMC8278493
No constants are given. Whether binding was seen depends on the method and setting. Binding seen in cells or lysates may run through a third protein. Some binding calls cover weakened binding; strength is not graded here. For part of these data: Sequences can lack the tags named with a protein.

Sequences of proteins named here, by UniProt entry; tags and fusion partners are left off. A change or cut given only in a name is not applied to a line headed by its entry.
UniProt O43156: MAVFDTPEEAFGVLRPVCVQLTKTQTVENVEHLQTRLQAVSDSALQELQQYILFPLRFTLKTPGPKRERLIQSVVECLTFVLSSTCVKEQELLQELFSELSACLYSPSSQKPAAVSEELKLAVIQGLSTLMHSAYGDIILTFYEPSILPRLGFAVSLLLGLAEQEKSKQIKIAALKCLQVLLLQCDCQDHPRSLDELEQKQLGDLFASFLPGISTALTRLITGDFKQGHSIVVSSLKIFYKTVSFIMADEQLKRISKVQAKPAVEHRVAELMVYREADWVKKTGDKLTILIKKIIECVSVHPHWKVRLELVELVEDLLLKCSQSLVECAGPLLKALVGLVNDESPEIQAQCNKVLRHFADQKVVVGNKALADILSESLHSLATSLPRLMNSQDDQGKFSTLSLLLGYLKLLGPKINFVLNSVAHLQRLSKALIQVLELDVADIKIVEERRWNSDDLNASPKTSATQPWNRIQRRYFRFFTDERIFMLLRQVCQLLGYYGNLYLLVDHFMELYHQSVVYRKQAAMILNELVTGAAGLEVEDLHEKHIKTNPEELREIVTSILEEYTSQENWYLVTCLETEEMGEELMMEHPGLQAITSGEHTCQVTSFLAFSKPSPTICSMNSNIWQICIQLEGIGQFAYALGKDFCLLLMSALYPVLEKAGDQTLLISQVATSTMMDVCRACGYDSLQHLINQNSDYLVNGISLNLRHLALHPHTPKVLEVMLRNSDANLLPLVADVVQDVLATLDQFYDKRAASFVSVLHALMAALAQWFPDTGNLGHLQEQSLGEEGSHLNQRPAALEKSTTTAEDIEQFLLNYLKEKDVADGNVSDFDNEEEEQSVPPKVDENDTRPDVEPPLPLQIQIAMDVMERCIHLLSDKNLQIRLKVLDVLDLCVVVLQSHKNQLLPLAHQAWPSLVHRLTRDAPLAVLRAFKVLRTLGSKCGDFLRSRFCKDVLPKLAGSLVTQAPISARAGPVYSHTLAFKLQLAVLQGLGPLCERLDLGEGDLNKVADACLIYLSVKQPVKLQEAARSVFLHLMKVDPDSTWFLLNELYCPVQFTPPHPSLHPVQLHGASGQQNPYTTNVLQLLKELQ

Columns and labels:
[1] = target: Strep-TTI1(468-1089), human (human) (UniProt O43156); test: pull-down; strep-tag pull-down from Sf9 cells co-expressing strep-TTI1 constructs with GST-TTI2 (Figure S4)
[2] = target: T1, GST-TTI2(1-193), human (human) (UniProt Q6NXR4); test: pull-down; glutathione beads, from Sf9 cells co-expressing GST-TTI2 constructs with TTI1 constructs
T1 sequence: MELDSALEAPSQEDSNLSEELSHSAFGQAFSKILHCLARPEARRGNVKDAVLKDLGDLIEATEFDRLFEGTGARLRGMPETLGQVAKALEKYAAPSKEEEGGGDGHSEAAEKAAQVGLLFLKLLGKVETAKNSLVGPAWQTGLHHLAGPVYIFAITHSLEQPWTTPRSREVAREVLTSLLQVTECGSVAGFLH

[3] = target: T2, GST-tagged full-length human TTI2 (human) (UniProt Q6NXR4); test: as above
T2 sequence: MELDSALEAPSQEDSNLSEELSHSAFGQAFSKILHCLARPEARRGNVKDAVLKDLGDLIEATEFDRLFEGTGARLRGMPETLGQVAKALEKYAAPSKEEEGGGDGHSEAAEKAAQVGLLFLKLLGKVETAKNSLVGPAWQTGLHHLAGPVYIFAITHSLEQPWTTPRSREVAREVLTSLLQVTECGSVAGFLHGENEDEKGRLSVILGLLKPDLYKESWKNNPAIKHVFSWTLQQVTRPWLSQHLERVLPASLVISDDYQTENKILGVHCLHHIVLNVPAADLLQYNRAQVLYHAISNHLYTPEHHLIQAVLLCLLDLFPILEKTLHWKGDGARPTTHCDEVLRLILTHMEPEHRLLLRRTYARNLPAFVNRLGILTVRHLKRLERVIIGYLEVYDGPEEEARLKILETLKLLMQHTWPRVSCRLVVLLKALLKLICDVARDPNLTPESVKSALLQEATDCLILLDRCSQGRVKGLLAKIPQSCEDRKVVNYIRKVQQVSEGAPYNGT

GST-tagged full-length human TTI2 (from UniProt Q6NXR4 1-508)
binding [1]: binds

human TTI1, full length, untagged (from UniProt O43156 1-1089)
binding [2]: binds

Strep-TTI1(468-1089), human (from UniProt O43156 468-1089) (domain or fragment)
binding [3]: binds
